In publication PMC6393503:
No constants are given. Whether binding was seen depends on the method and setting. Binding seen in cells or lysates may run through a third protein. Here binding means that the protein was enriched with, or labelled near, the bait; the list need not be complete.

The chains behind the UniProt entries cited, without tags or fusion partners.
UniProt Q8NA03: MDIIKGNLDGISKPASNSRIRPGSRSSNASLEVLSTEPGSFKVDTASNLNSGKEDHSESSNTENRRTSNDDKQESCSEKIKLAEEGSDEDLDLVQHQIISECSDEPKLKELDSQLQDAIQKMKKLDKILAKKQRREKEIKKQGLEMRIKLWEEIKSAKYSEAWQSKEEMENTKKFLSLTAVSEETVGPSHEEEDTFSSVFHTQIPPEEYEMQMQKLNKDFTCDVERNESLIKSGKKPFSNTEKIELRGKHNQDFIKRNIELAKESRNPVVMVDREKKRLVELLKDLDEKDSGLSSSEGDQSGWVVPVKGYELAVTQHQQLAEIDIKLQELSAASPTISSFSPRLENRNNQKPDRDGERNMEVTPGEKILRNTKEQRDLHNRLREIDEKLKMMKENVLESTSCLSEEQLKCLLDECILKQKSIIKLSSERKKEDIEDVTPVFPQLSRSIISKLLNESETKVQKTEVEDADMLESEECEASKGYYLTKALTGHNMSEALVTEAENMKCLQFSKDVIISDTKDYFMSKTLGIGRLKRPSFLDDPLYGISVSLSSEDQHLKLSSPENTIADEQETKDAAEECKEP

Biological target: FSIP1 (His-tagged) (UniProt Q8NA03)
Experiment: co-IP + affinity purification with mass spectrometry; anti-His-tag immunoprecipitation from RIPA lysate of cells over-expressing FSIP1-His, compared with empty-vector cells and an IgG control; immunoblot and MALDI-TOF/TOF of in-gel digested bands

multidrug resistance protein 1 (MRP1) (from UniProt P33527-1 1-1531)
binding: binds
